Reference: doi:10.1101/162958

Experiments:
Assay in all cases: co-IP
[1] = biological target: T1, C-terminally myc-epitope tagged Stx3 (membrane-anchored Stx3A) (human) (UniProt Q13277)
T1 sequence: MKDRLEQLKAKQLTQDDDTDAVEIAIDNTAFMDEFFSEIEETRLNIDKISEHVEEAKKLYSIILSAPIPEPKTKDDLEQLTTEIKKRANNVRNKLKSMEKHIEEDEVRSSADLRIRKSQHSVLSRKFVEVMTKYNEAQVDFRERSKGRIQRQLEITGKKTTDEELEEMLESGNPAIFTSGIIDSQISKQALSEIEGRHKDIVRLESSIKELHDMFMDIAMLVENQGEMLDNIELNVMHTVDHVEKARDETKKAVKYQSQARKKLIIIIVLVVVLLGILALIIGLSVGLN

[2] = biological target: T2, Stx3 (1–146), soluble three-helix bundle, myc-tagged (human) (UniProt Q13277)
T2 sequence: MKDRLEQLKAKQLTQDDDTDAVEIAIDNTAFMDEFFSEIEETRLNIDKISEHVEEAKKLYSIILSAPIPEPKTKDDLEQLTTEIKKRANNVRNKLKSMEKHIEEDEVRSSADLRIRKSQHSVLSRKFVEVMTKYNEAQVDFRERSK

[3] = biological target: RanBP5 (endogenous in MDCK cells) (dog (endogenous in MDCK))

binding [1]: binds
binding [2]: binds
Molecule: RanBP5 (endogenous in MDCK cells)

binding [3]: binds
B1: C-terminally myc-epitope tagged Stx3 (membrane-anchored Stx3A) (protein, UniProt Q13277 1-289)
chain: T1 sequence

Results are given in words; binding and its absence hold for the method and conditions named. Binding seen in cells or lysates may run through a third protein. Binding can be weak; no strength is given. Tags and fused reporters may be left off the sequences shown. One block for each molecule: values may come before it.
